From paper PMC7646526
Results are given in words; binding and its absence hold for the method and conditions named. For some assays here: In cells and extracts the contact can be indirect. Some binding calls cover weakened binding; strength is not graded here.

Sequences of proteins named here, by UniProt entry; tags and fusion partners are left off.
UniProt P70731: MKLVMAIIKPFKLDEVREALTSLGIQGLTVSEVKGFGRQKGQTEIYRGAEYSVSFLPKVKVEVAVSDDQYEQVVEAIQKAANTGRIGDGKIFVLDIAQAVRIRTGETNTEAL
UniProt A0A0N7I832: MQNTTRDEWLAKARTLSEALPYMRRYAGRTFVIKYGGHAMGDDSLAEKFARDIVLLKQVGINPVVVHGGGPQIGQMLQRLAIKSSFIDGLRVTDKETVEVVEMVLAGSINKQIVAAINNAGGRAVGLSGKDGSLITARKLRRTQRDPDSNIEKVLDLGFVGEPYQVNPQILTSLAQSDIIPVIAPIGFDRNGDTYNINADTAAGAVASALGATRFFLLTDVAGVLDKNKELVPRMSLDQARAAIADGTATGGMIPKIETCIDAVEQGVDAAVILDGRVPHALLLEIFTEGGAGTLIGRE

B1: TrkA (G8AQ29), recombinant (protein, UniProt A0A0P0EHA2 1-458)
chain: MKVIVCGAGQVGSNIARYLASEGNNVTVIDHSPELIQRISDTLDVQAMVGHASHPDVLEAAGAGETDMIIAVTQIDEINMVACEVAHALFKVPTKIARVRNQSYLKPIWADLFSRDHMPIDVIISPEIAVARAIARRLQVPGAFDMIPLADGKVRVVGVLCTETCPVLHTPLRQLTGLFPDLGLEVVAIIRNDRSFIPGGDDQMLPGDEVYFACDNRHLNRAMSAFGHEEVEARRIIILGGGNIGLCLAEELEAKYPHVTARIIEMNRSRAQYVAQRLSRTMVLHGDGLDPEILEEANVRATETVVAVTNDDEGNILSSLLAKRHGAKRAITLINKASYTSLVSPLGIDAVVSPRAITVSNILQHVRRGRIRAVHSLRDGFAEVIEAEALETSAVVNTPLREVKLPSGVIVGAIVRGDEVIVPRPATVIRPKDRVVILATAGQVKKVEKMFAVRLEFF
B2: ATase, glutamine synthetase adenylyltransferase (A7Y9V0), recombinant (enzyme, UniProt A0A0P0F2U7 1-1005)
chain: MTTTLPKPFDTGLAERGLERWRAEAANAADNDGNNDGDSTGDALRAWAEAYADSAEGRALIDAVCGNSPYLGQILTRELPFVREMVTRGYDDAFATLLRRLEADCAEERNIDRLMTALRIAKRRAALLIAIADITGAWELEAVTGALSDIAETSVRMAANHLLRRAAEAGTLTLPEPQRPWVGSGLIVLGMGKLGARELNYSSDIDLIVLYDDAVVQTPQPDNLARTFIRIARDLVRIMDERTKDGYVFRTDLRLRPDPGATPLAVSVSAAEIYYGSVGQNWERAAMIKARPIAGDPEAGAHFLRFLEPFVWRRHLDFAAIQDIHSIKRQINAHKGHREVTVNGHDIKVGRGGIREIEFFAQTQQLIFGGRDIRVRIAPTLLANKALCAVGRVPEAAVEELEEAYRFLRRVEHRIQMTDDRQTHQIPADDEGVAHLATFLGYAQVEDFRADLLAQLGRVEDRYAELFEEAPSLSGPGNLVFTGTDDDPGTVKTLAGMGYRDPSRVIAVVSTWHRGRYRSTRSGRARELLTELVPAMLNELAKTPAPDDALVKFDSFLERLPAGVGLFSLFIANPWLLALVAEIMGTAPQLAETLSRNPSLLDAVLSPDFFDPLPDAAGLTPEYQRFIAGAHNFEDVLTLSRRWTNDQRFRAGAHILRGITDGDHCGPFLADLADVVVPELAARVEEEFATRHGRIPGGAWVVVAMGKLGSRQLTITSDIDLIVVYEVPPGTRQSDGTKPLAPNEYYIKLTQRLTNAITAPMADGRLYEVDMRLRPSGNAGPLATALDAFTAYQAKDAWTWEHMALTRARVIGGDPPLGHKVESAIRGVLTGPRDPAKVLRDVADMRRRIDKEFGTANPWNVKYARGGLIDIEFTAQYLQLRHGHAHPEILSIATSRALLNAAAAGLLAPEVAEELAATLKLWRRVQGFLRLTTDGVLDPRQVSPTLREGLSRAAFPDEEPAVDFAALDSRIRDIAARAHRHFVALVEEPASRLPPPETNEEAKLP
B3: RPH, RNase PH (G8AGG4), recombinant (enzyme, UniProt A0A4D8QJU4 1-239)
chain: MRPSGRAHDQLRTISLEPHFSKHAEGSCLVRFGDTHVLCTASVDEGVPRFLKNTGLGWVTAEYGMLPRSTHSRTDREAAKGKQSGRTQEIQRLIGRALRAVTDRAAMGEKQIKIDCDVIQADGGTRTAAITGSFVALHLAFQHLMQIGALKTMPLTDHVAAVSCGIYKNTSVLDLDYAEDSTAQADANFVLTGQGGIVEVQGTAEERPFSEPQFMELLALARKGIDELVALQKAAIAVK
B4: Rho (G8AG60), recombinant (protein, UniProt A0A560CHF0 1-418)
chain: MHLQELKCKSPAELLAFAEELQIENASTLRKQDMMFAILKQLAENDVPIYGDGVLEVLQDGFGFLRSPEANYLPGPDDIYVSPSQVRRFSLRTGDTVEGQIRAPKDGERYFALLKVNTINFDAPDKVRHRINFDNLTPLYPEERLRMEVDDPTKKNYTGRIIDLVAPLGKGQRGLIVAPPRTGKTVMLQNIAHSIATNHPEAYLIVLLIDERPEEVTDMARSVRGEVISSTFDEPATRHVQVAEMVIEKAKRLVEHKRDVVILLDSITRLARAYNTVVPSSGKVLTGGVDANALQRPKRFFGAARNIEEGGSLTIIATALIDTGSRMDEVIFEEFKGTGNSEIVLDRKLSDKRTFPAIDISKSGTRKEELLVDKGTISKMWILRRILMPMGVTDAVDFLVDKLKHTKSNSEFFESMNQ

Key:
[1] = molecular target: His-tagged GlnZ (A. brasilense) (UniProt P70731); assay: pull-down; 20 μg purified His-GlnZ immobilised on magnetic Ni2+ beads (MagneHis), mixed with 20 μg of partially purified or purified protein; 50 mM Tris-HCl pH 8, 0.1 M NaCl, 10% glycerol, 20 mM imidazole, 5 mM MgCl2, with 1 mM ADP, 1 mM ATP or 1 mM ATP + 1.5 mM 2-OG; SDS-PAGE, Coomassie; 2-OG reduced copurification; both purified
[2] = molecular target: His-tagged GlnZ (A. brasilense) (UniProt P70731); assay: as above; remark: listed apart in the source
[3] = molecular target: His-tagged GlnZ (A. brasilense) (UniProt P70731); assay: pull-down; 20 μg purified His-GlnZ immobilised on magnetic Ni2+ beads (MagneHis), mixed with E. coli cell extract overexpressing the recombinant protein (100 μl in Fig. S1); 50 mM Tris-HCl pH 8, 0.1 M NaCl, 10% glycerol, 20 mM imidazole, 5 mM MgCl2, with 1 mM ADP, 1 mM ATP or 1 mM ATP + 1.5 mM 2-OG; SDS-PAGE, Coomassie; 2-OG reduced copurification; only the target purified

| Molecule | binding [2] | further results |
| --- | --- | --- |
| NAGK (G8AI64), recombinant (from UniProt A0A0N7I832 1-299) (enzyme) | – | binding [1]: binds |
| B1 | binds | – |
| B2 | binds | – |
| B3 | binds | – |
| B4 | – | binding [3]: binds |
